PubChem BioAssay AID1159578 – Peter MacCallum Cancer Centre – 2015
This is one part, drawn at random, of about 18,000 reagents tested. Over the whole deposit, about 1,030 (5.7%) are marked active. 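Inactive calls also include pools with fewer than 3300 nuclei, whose migration was not assessed.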 The raw values are shown without normalisation. Further read-outs or replicates are left out here.

- Assay: 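Knock-downs that alter how fast lymphatic endothelial cells migrate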 (primary screen)
- System: human lymphatic endothelial cells
- Reagent: siRNA pool against human genes, 40 nM
- Time to read-out: 48 h after transfection
- Measurement: 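Cells stained with dye and imaged after a scratch; covered wound area and nuclei counted, duplicates averaged, migration set against mock wells and turned into a robust z-score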
- Direction: migration robust z-score: higher = faster migration into the scratch; nuclei per well: higher = more cells in the well
- Active means: 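Pools averaging fewer than 3300 nuclei are never called; remaining pools count as changed when migration robust z lies outside -2 to 2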
- Meaning of the calls: active = migration changed; inactive = no migration change, or too few cells

STH | migration robust z-score: 1.36; nuclei per well, duplicate mean: 5883; outcome: inactive
GLI1 | migration robust z-score: -2.1; nuclei per well, duplicate mean: 5903; outcome: active
ETAA1 | migration robust z-score: 0.04; nuclei per well, duplicate mean: 6980; outcome: inactive
ADPRM | migration robust z-score: -0.25; nuclei per well, duplicate mean: 6806; outcome: inactive
MAGEA8 | migration robust z-score: 0.74; nuclei per well, duplicate mean: 8138; outcome: inactive
SPINT1 | migration robust z-score: -0.18; nuclei per well, duplicate mean: 5128; outcome: inactive
NDNF | migration robust z-score: -1.33; nuclei per well, duplicate mean: 5637; outcome: inactive
ST8SIA2 | migration robust z-score: -0.52; nuclei per well, duplicate mean: 5586; outcome: inactive
PRKAG2 | migration robust z-score: -0.72; nuclei per well, duplicate mean: 5092; outcome: inactive
VCL | migration robust z-score: 0.32; nuclei per well, duplicate mean: 6168; outcome: inactive
ECT2 | migration robust z-score: 0.83; nuclei per well, duplicate mean: 5332; outcome: inactive
OR8H3 | migration robust z-score: -0.58; nuclei per well, duplicate mean: 8438; outcome: inactive
RIPPLY3 | migration robust z-score: -0.04; nuclei per well, duplicate mean: 5222; outcome: inactive
TMEM68 | migration robust z-score: -0.86; nuclei per well, duplicate mean: 6262; outcome: inactive
UBXN2A | migration robust z-score: 0.76; nuclei per well, duplicate mean: 5446; outcome: inactive
PSG7 | migration robust z-score: 1.34; nuclei per well, duplicate mean: 6398; outcome: inactive
FOLR2 | migration robust z-score: -0.68; nuclei per well, duplicate mean: 3425; outcome: inactive
KBTBD3 | migration robust z-score: 0.67; nuclei per well, duplicate mean: 5202; outcome: inactive
TTLL8 | migration robust z-score: 0.12; nuclei per well, duplicate mean: 6585; outcome: inactive
RASGRF2 | migration robust z-score: 1.31; nuclei per well, duplicate mean: 6162; outcome: inactive
PTCHD1 | migration robust z-score: -0.24; nuclei per well, duplicate mean: 5802; outcome: inactive
